# Measured values from PubChem BioAssay AID493014 (National Center for Advancing Translational Sciences (NCATS), 2011).
# Some of the results follow. Shown are side measurements of this screen, not its main read-out; they come without a call. Most of these compounds were active or inconclusive in the main read-out, so they are no random draw. Potencies come from curve fits of mixed quality, noted in brackets.
# Assay: qHTS Assay to Find Inhibitors of Chronic Active B-Cell Receptor Signaling
# Settings: ABC-DLBCL IkBa-CBG/CBR reporter, luminescence ratio (green luciferase fused to IkBa over red control in TMD8 lymphoma cells), 4 h
# How it was run: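 Compounds up to 46 uM were incubated four hours with TMD8 cells whose green CBG68 luciferase is fused to IkappaBalpha; red CBR luminescence normalised the signal, and concentration-effect curves were fitted to fusion, red and ratio data.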
# [1] = measured here: CBR red luminescence, cell number
# [2] = measured here: IkBa-CBG green luminescence
SMILES,AC50 [1],AC50 [2]
O=C(Cc1cccs1)Nc1nc2c(ccc3ccccc32)s1,"23.1 µM [falling, single point]",
CS/C(=C\[N+](=O)[O-])Nc1ccc(C)cc1,"7.08 µM [falling, full curve]",
Cc1ccc(S(=O)(=O)CCC(=O)Nc2nc(-c3cccnc3)cs2)cc1,"3.55 µM [rising, single point]",
Cc1ccc(C(=O)NC(=S)N2CCN(c3ccc([N+](=O)[O-])cc3)CC2)cc1,"0.259 µM [rising, full curve, poor fit]",
CCOC(=O)/C(C#N)=C/C=C1\C=Cc2ccccc2N1CC,"15.8 µM [rising, partial curve, poor fit]",
C/C(O)=C(\C#N)c1nc2ccccc2[nH]1,"8.2 µM [falling, partial curve]",
N#CC1=C(N)Nc2nc3ccccc3n2C1c1ccc(Cl)cc1 (centres undefined),"32.6 µM [falling, partial curve, poor fit]",
Cc1csc(NC(=O)c2cccc(Cn3nc(C)c(Br)c3C)c2)n1,"3.98 µM [falling, partial curve, poor fit]",
CCN(Cc1ccncc1)C(=O)c1cc(COc2c(C)cccc2C)on1,"35.5 µM [falling, partial curve, poor fit]",
CCCNC(=O)CS(=O)Cc1nc(-c2ccc(OC)cc2)oc1C (centres undefined),"6.51 µM [falling, single point]",
CCOC(=O)c1sc(NC(=S)NC(=O)c2ccco2)nc1C,,"18.4 µM [rising, partial curve, poor fit]"
COc1cccc2oc3ccc(C#Cc4ccccn4)cc3c(=O)c12,"0.794 µM [rising, full curve, poor fit]",
CC(=O)c1cccc(NC(=O)c2cnn3ccccc23)c1,"32.6 µM [falling, single point]",
CC(C)[C@H](NC(N)=O)C(=O)Nc1ccc2c(c1)CCC2,"35.5 µM [rising, partial curve, poor fit]",
CC1CN(C(=O)COc2ccc3ccccc3c2)CC(C)O1 (centres undefined),"6.51 µM [rising, partial curve]",
O=C(NN=C1CCCC1)c1ccc(Cl)cc1,"35.5 µM [falling, single point]","35.5 µM [falling, single point]"
O=C(Nc1ccc(NC(=O)c2cccs2)cn1)c1ccccc1,"10 µM [falling, partial curve, poor fit]",
CCn1c(/N=C/c2c[nH]c3ccccc23)nc2ccccc21,"11.2 µM [falling, partial curve]",
COc1cccc(C(=O)NCc2cn3ccsc3n2)c1,"8.2 µM [rising, partial curve, poor fit]",
Cc1cccc(N2CCN(CC(O)COc3ccc(Cl)cc3)CC2)c1 (centres undefined),"2.51 µM [falling, partial curve, poor fit]",
CCN(CC)CCN1c2ccccc2Sc2ccc3ccccc3c21,"14.1 µM [falling, partial curve]",

# A second format for 8 compounds above.
SMILES | AC50 [1] | AC50 [2]
Cc1ccc(S(=O)(=O)CCC(=O)Nc2nc(-c3cccnc3)cs2)cc1 | 3.55 µM [rising, single point] | 
Cc1ccc(C(=O)NC(=S)N2CCN(c3ccc([N+](=O)[O-])cc3)CC2)cc1 | 0.259 µM [rising, full curve, poor fit] | 
CCOC(=O)/C(C#N)=C/C=C1\C=Cc2ccccc2N1CC | 15.8 µM [rising, partial curve, poor fit] | 
N#CC1=C(N)Nc2nc3ccccc3n2C1c1ccc(Cl)cc1 (centres undefined) | 32.6 µM [falling, partial curve, poor fit] | 
CC(=O)c1cccc(NC(=O)c2cnn3ccccc23)c1 | 32.6 µM [falling, single point] | 
CC(C)[C@H](NC(N)=O)C(=O)Nc1ccc2c(c1)CCC2 | 35.5 µM [rising, partial curve, poor fit] | 
CC1CN(C(=O)COc2ccc3ccccc3c2)CC(C)O1 (centres undefined) | 6.51 µM [rising, partial curve] | 
O=C(NN=C1CCCC1)c1ccc(Cl)cc1 | 35.5 µM [falling, single point] | 35.5 µM [falling, single point]

# Further records

SMILES,AC50 [1],AC50 [2]
CCC(=O)Nc1c(S(=O)(=O)c2ccccc2)c2nc3ccccc3nc2n1C(C)c1ccccc1 (centres undefined),"16.4 µM [falling, single point]",
Cc1ccc(SCC(=O)OCC(=O)NCCC2=CCCCC2)cc1,,"4.11 µM [falling, partial curve, poor fit]"
COC(=O)C1=C(C)NC(=O)CC1c1cc(Br)ccc1F (centres undefined),"1.84 µM [rising, single point]",
CCOc1ccc(CCNC(=O)c2cc(=O)[nH]c3ccc(S(=O)(=O)N4CCCCC4C)cc23)cc1OCC (centres undefined),"0.447 µM [rising, full curve, poor fit]","11.2 µM [falling, partial curve, poor fit]"
O=C(Cc1ccc(Cl)cc1)Nc1ccc(Br)cc1,"2.24 µM [rising, full curve]",
O=C(NCCc1ccccc1)C(c1cccs1)N(C(=O)CCl)c1ccc(Cl)cc1 (centres undefined),"20.6 µM [falling, partial curve]","23.1 µM [rising, single point]"
O=C(Nc1cc(-c2nc3ncccc3o2)ccc1Cl)c1ccc2c(c1)OCO2,"2.59 µM [rising, single point]",
CCOC(=O)CCCNC(=O)COC(=O)c1cccc(C)c1O,"10 µM [falling, partial curve]",
N#Cc1cn(Cc2ccncc2)c(=O)[nH]c1=O,"17.8 µM [rising, single point]",
CCCCCn1c(CNC(=O)COC)nc2ccccc21,"6.51 µM [rising, single point]",
Cc1ccc(S(=O)(=O)Cc2nnnn2-c2ccccc2)cc1,"0.316 µM [falling, partial curve, poor fit]",
COc1ccccc1NC(=O)Cn1c(CN2CCCCC2)nc2ccccc2c1=O,"12.6 µM [falling, partial curve, poor fit]",
COc1ccc(NC(=O)CN(C)S(=O)(=O)c2cccc3nsnc23)cc1OC,"23.1 µM [rising, single point]",
Cc1[nH]c2ccccc2c1C(=O)COC(=O)c1cccc(S(=O)(=O)N2CCCCC2)c1,"5.17 µM [falling, partial curve, poor fit]",
Oc1oc(-c2ccccc2)nc1C=Nc1ccccc1,"7.08 µM [falling, partial curve]",
Cc1ccc(O)c(NC(=O)c2noc(C(C)C)c2[N+](=O)[O-])c1,"0.501 µM [rising, full curve, poor fit]",
COc1ccc(OC)c(-c2cc(-c3cccnc3)nc(N)c2C#N)c1,"11.2 µM [falling, partial curve, poor fit]",
Cc1ccccc1-n1nc2c(c1NC(=O)CCCl)CSC2,"5.62 µM [falling, single point]",
O=C(CSc1nc2cc(Cl)ccc2s1)c1cc2ccccc2o1,"6.51 µM [rising, single point]",
CCc1nnc2c3cnn(-c4ccccc4)c3ncn12,"29.1 µM [falling, single point]",
